Taken from: PubChem BioAssay AID1259291 (Sanger Institute, 2017)
The whole screen tested 794 reagents; this is a part drawn at random. 15 of all reagents (1.9%) were called active. 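Calls rest on knock-down alone; drug synergy scores do not affect them; drugs added a day post-transfection, DMSO vehicle as comparison.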 Not all columns of the deposit are shown. Reagent sequences are not shown. Not given: the amount of reagent, the time to read-out.

Assay: 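Find kinase and colorectal-cancer-mutated genes whose loss kills HT29 cells or aids anchor drugs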 (primary screen)
System: HT29 human colorectal cancer cells
Reagents: siRNA pool against human genes
Challenge: anchor drugs added a day after transfection: BYL719 at 1 µM, cetuximab at 5 µg/ml or trametinib at 10 nM, or DMSO vehicle alone
Read-out: 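Cell viability as a fraction of the non-targeting pool, mean of replicates, robust z-scores from control wells; synergy scores for BYL719 (1 µM), cetuximab (5 µg/ml), trametinib (10 nM)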
Direction: robust z-score, knock-down alone: higher = more viable cells
Call rule: 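Essential when the robust z-score for knock-down without any drug is below -3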
Meaning of the calls: active = essential (knock-down alone); inactive = no change alone

FOXP1 (forkhead box P1) scored robust z-score, knock-down alone 0.296; inactive. Silencing of EPHB3 (EPH receptor B3) came out at: robust z-score, knock-down alone -1.18; inactive. Depletion of AAK1 (AP2 associated kinase 1) gave: robust z-score, knock-down alone -0.949; inactive. Silencing of COASY (Coenzyme A synthase) resulted in: robust z-score, knock-down alone -2.01; inactive. DCLK1 (doublecortin like kinase 1) gave robust z-score, knock-down alone -2.67; inactive. After knock-down of THNSL1 (threonine synthase like 1), the screen gave robust z-score, knock-down alone 0.552; inactive.

Silencing of MAP2K4 (mitogen-activated protein kinase kinase 4) gave: robust z-score, knock-down alone 0.552; inactive. EGFR (epidermal growth factor receptor) gave robust z-score, knock-down alone -0.171; inactive. Against DYRK4 (dual specificity tyrosine phosphorylation regulated kinase 4) the deposit lists robust z-score, knock-down alone 0.552; inactive.

An excerpt of the results above:
EPHB3 (EPH receptor B3) → robust z-score, knock-down alone: -1.18; activity call: inactive
AAK1 (AP2 associated kinase 1) → robust z-score, knock-down alone: -0.949; activity call: inactive

Continued.
After knock-down of CHEK2 (checkpoint kinase 2) the results were robust z-score, knock-down alone 0.552; inactive. Silencing of GCK (glucokinase) gave: robust z-score, knock-down alone 0.552; inactive. Against STK35 (serine/threonine kinase 35) the deposit lists robust z-score, knock-down alone 0.552; inactive. With knock-down of RPS6KA4 (ribosomal protein S6 kinase A4), the screen gave robust z-score, knock-down alone -2.77; inactive. After knock-down of PDGFRA (platelet derived growth factor receptor alpha) the results were robust z-score, knock-down alone 0.552; inactive. Silencing of DAPK3 (death associated protein kinase 3) came out at: robust z-score, knock-down alone 0.487; inactive.

With knock-down of CDKN1C (cyclin dependent kinase inhibitor 1C), the screen gave robust z-score, knock-down alone 0.552; inactive. Against TAOK2 (TAO kinase 2) the deposit lists robust z-score, knock-down alone -1.54; inactive. After knock-down of PIP4K2A (phosphatidylinositol-5-phosphate 4-kinase type 2 alpha), the screen gave robust z-score, knock-down alone 0.552; inactive. After knock-down of EPHB2 (EPH receptor B2), the screen gave robust z-score, knock-down alone 0.552; inactive.
